According to PubChem BioAssay AID1487 (National Center for Advancing Translational Sciences (NCATS), 2009):
Some of the results follow. Shown are side measurements of this screen, not its main read-out; they come without a call. Compounds called inactive in the main read-out are mostly missing here. Words in brackets tell the shape of the fitted curve; partial curves, single points and poor fits give uncertain potencies.

Assay: qHTS Assay for Modulators of Lamin A Splicing
Conditions: HeLa LMNA splicing GFP/RFP minigene ratio, 48 h
Summary of the method: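 S3 HeLa cells stably expressing lamin A-EGFP splicing minigene plus DsRed2, 600 cells/well, 48 h compound exposure at 37C. Laser-scanning cytometry; analysed as GFP (500-530 nm)/RFP (575-640 nm) total intensity ratio; 0.5% DMSO vehicle.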

[1] = measured here: GFP splicing reporter channel
[2] = measured here: RFP viability control channel

| Compound | AC50 [1] | AC50 [2] |
| --- | --- | --- |
| N=c1c2c(-c3ccccc3)c(-c3ccccc3)n(Cc3ccccc3)c2ncn1CCCO | 12.6 µM [falling, partial curve] | 35.5 µM [falling, single point] |
| COc1ccc(Oc2ncnc3sccc23)cc1 | – | 3.98 µM [falling, partial curve] |
| Cn1c(=O)[nH]c(=O)c2c1nc(CN1CCN(c3cccc(Cl)c3)CC1)n2Cc1ccccc1Cl | 35.5 µM [falling, single point] | 35.5 µM [falling, single point] |
| O=C(CCC1CC(=O)Nc2ccccc21)NCc1cccnc1 (centres undefined) | – | 0.794 µM [falling, single point] |
| Cc1cc(C)nc(-n2nc(C)c3c2NC(=O)CC3c2cccc(O)c2)n1 (centres undefined) | – | 8.91 µM [rising, partial curve] |
| CCOC(=O)C(C)On1c(-c2cccc(Cl)c2)nc2ccc([N+](=O)[O-])cc21 (centres undefined) | 20 µM [rising, single point] | 31.6 µM [rising, single point] |
| COc1ccc(NC(=O)c2cc3c(s2)CCC(C)C3)cc1S(=O)(=O)N1CCOCC1 (centres undefined) | – | 3.16 µM [rising, full curve] |
| Nc1nnnn1/N=C/c1cccc(OCc2ccccc2Cl)c1 | – | 22.4 µM [rising, single point] |
| Cc1ccc(-c2cc(C(=O)NCc3cccnc3)no2)cc1 | – | 11.2 µM [rising, partial curve, poor fit] |
| COc1cc(OC)c(NC(=O)Nc2cccc(OCc3cc(=O)n4ccccc4n3)c2)cc1Cl | 11.2 µM [falling, partial curve] | 14.1 µM [falling, partial curve] |
| C=CCn1c(SCc2ccc(C(=O)OC)cc2)nnc1-c1sc(N)nc1C | 0.0562 µM [rising, full curve, poor fit] | – |
| O=C(Nc1ccccc1)c1ccc(S(=O)(=O)NCC2CCCO2)cc1 (centres undefined) | 8.91 µM [rising, partial curve, poor fit] | 15.8 µM [rising, partial curve] |
| C=CCn1c(=S)[nH]c2scc(-c3cccs3)c2c1=O | 35.5 µM [rising, partial curve, poor fit] | – |
| O=C(OCc1cc([N+](=O)[O-])cc2c1OCOC2)c1ccc2ccccc2n1 | 35.5 µM [falling, partial curve, poor fit] | – |
| Oc1cccc(-c2nc3c4c(ncn3n2)-c2ccccc2CC42CCCC2)c1 | 20 µM [falling, partial curve] | 20 µM [falling, partial curve] |
| Cc1cc(Cl)ccc1OC(C)C(=O)NCCCCc1ccccc1 (centres undefined) | – | 20 µM [rising, single point] |
| Cc1ccc(Nc2c(-c3ccccc3)nc3cnccn23)cc1 | 0.0224 µM [falling, full curve] | 0.02 µM [falling, full curve, poor fit] |
| O=C(O)C1CCN(S(=O)(=O)c2ccc(Oc3ccccc3)cc2)CC1 | 12.6 µM [rising, single point] | 22.4 µM [rising, single point] |
| O=C(/C=C/c1ccccc1)NCCOc1ccccc1 | 1.58 µM [rising, full curve, poor fit] | – |

| Compound | AC50 [1] | AC50 [2] |
| --- | --- | --- |
| CCOc1ccc(C2C(=O)N(C3CCCCC3)CC(=O)N2CC2CCCO2)cc1OC (centres undefined) | – | 6.31 µM [falling, single point] |
| O=C1c2cccc(OCC(=O)N3CCCc4ccccc43)c2CCN1Cc1ccccc1 | 35.5 µM [falling, single point] | – |
| CCOC(=O)c1cc(-c2ccccc2)n(CCC(=O)N2CCN(c3ccccc3OC)CC2)c1C | 22.4 µM [falling, single point] | – |
| COc1ccc(N2CCCn3c2nc2c3c(=O)n(Cc3ccc(C)cc3)c(=O)n2C)c(OC)c1 | – | 2.82 µM [falling, partial curve, poor fit] |
| CCN1CCC[C@H]1CNC(=O)c1cc(S(N)(=O)=O)ccc1OC | 0.00631 µM [falling, full curve, poor fit] | 0.00224 µM [falling, full curve, poor fit] |
| O=S(=O)(c1cc(Cl)ccc1Cl)n1ccnc1 | – | 0.00794 µM [falling, full curve, poor fit] |
| COc1ccccc1N1CCN(CCCNC(=O)c2cnn(-c3cccc(Cl)c3)c2C2CCN(C(=O)OC(C)(C)C)CC2)CC1 | 35.5 µM [falling, single point] | – |
| COc1cc(CNCc2c[nH]c3ccccc23)cc(OC)c1 | 0.794 µM [falling, full curve, poor fit] | – |
| O=C(Nc1ccccc1)Nc1cccc(-c2cn3cccnc3n2)c1 | – | 0.0224 µM [rising, full curve, poor fit] |
| Cc1cc(C)n(/N=C\c2c(O)ccc3ccccc23)c(=O)c1C(N)=O | – | 35.5 µM [rising, single point] |
| CCOc1cc(/C=N/NC(N)=S)cc(Br)c1OCc1ccccc1C | – | 3.16 µM [falling, full curve, poor fit] |
| Cc1noc(C)c1-c1nc(N(C)Cc2ccco2)c2ccccc2n1 | 35.5 µM [falling, single point] | 35.5 µM [falling, single point] |
| Nc1nc(SCC(=O)Nc2ccccc2Oc2ccccc2)n[nH]1 | 0.0224 µM [rising, full curve, poor fit] | – |
| Cc1ccc2[nH]c(=O)c(CN(Cc3ccccc3)Cc3nnnn3C3CCCC3)cc2c1 | 14.1 µM [falling, single point] | – |
| CCC(C)NS(=O)(=O)c1ccc(NC(=O)C(Sc2ccccc2)c2ccccc2)cc1 (centres undefined) | – | 35.5 µM [rising, single point] |
| CC(C)(C)NC[C@H](O)COc1cccc2c1CCC(=O)N2 | 15.8 µM [rising, partial curve, poor fit] | – |
| Cn1c(=O)c(-c2ccc(Cl)cc2)nc2cnc(N3CCNCC3)nc21 | 20 µM [falling, partial curve] | 12.6 µM [falling, single point] |
| O=C(C1CCN(S(=O)(=O)N2CCOCC2)CC1)N1CCN(Cc2ccc3c(c2)OCO3)CC1 | 12.6 µM [rising, single point] | 17.8 µM [rising, single point] |
| CCCNC(=O)N1CCCC(C(N)=O)C1 (centres undefined) | – | 0.0355 µM [falling, full curve, poor fit] |

| Compound | AC50 [1] | AC50 [2] |
| --- | --- | --- |
| CCOc1cc(Br)ccc1S(=O)(=O)N1CC(C)OC(C)C1 (centres undefined) | – | 35.5 µM [rising, single point] |
| Cc1cc(C)n2cc(CSc3nncn3C)nc2n1 | 0.0708 µM [falling, full curve, poor fit] | – |
| C/C(N)=C(/C#N)C(=O)CSc1nc2scc(-c3ccccc3)c2c(=O)n1C | 31.6 µM [falling, single point] | – |
| CCOc1ccc(CCNC(=O)CCCn2c(=O)c3cccn3c3ccccc32)cc1 | – | 12.6 µM [rising, partial curve] |
| CCOc1ccc2[nH]cc(S(=O)(=O)c3ccc(F)cc3)c(=O)c2c1 | – | 35.5 µM [rising, single point] |
| COC(=O)NCC(c1cccnc1)N1CCN(c2ccc(F)cc2)CC1 (centres undefined) | 14.1 µM [falling, single point] | 14.1 µM [falling, single point] |
| Cc1cc(NC(=O)COC(=O)C(Nc2ccc(C(F)(F)F)cc2Cl)C(C)C)no1 (centres undefined) | 35.5 µM [falling, single point] | – |
| O=C(NCc1ccco1)c1sc(=S)n2c1[nH]c(=O)c1ccccc12 | 0.631 µM [falling, single point] | 11.2 µM [rising, partial curve] |
| CCc1ccccc1NC(=O)CCNS(=O)(=O)c1ccc2c(c1)CCN2C(=O)C1CC1 | 10 µM [falling, partial curve] | 25.1 µM [falling, single point] |
| COC(=O)c1c(C)oc2ccc(N(C(=O)Oc3ccccc3)S(=O)(=O)c3ccccc3)cc12 | – | 22.4 µM [rising, single point] |
| Cc1cccc(C2=NC(C(F)(F)F)(C(F)(F)F)c3c(n(-c4ccc(F)cc4)c(=O)[nH]c3=O)N2)c1 | 0.1 µM [rising, full curve, poor fit] | 0.112 µM [rising, full curve] |
| CSC(=Nc1ccc(Cl)cc1)N[n+]1ccccc1 | 0.355 µM [rising, full curve, poor fit] | – |
| CN1CCC(N(C)C(=O)CCc2nc3ccccc3c(=O)[nH]2)CC1 | 1.26 µM [falling, single point] | – |
| O=c1cc(O)cc(/C=C/c2ccc(O)c(O)c2)o1 | – | 0.00501 µM [falling, full curve, poor fit] |
| Cc1ccc2c(c1)c1c(n2CC(O)Cn2c(C)nc3ccccc32)/C(=N\O)CCC1 (centres undefined) | 35.5 µM [falling, single point] | – |
| CCn1c2ccccc2c2cc(/C=N/NC(=O)c3cccc(C)c3)ccc21 | – | 17.8 µM [rising, single point] |
| Cc1nc(C)c(C(=O)NNS(=O)(=O)c2ccc3ccccc3c2)s1 | – | 3.55 µM [rising, full curve] |
| COCc1cc(N2CCOCC2)nc(SCc2ccc(Cl)cc2)n1 | 35.5 µM [rising, single point] | 31.6 µM [rising, single point] |
| Brc1ccc2ncnc(NCc3ccccc3)c2c1 | – | 17.8 µM [rising, single point] |

Copied from the list.
Entry for `Cc1cc(C)n2cc(CSc3nncn3C)nc2n1` under AC50 [1]: 0.0708 µM [falling, full curve, poor fit]
Entry for `CCOc1ccc(CCNC(=O)CCCn2c(=O)c3cccn3c3ccccc32)cc1` under AC50 [2]: 12.6 µM [rising, partial curve]
